These are yes or no findings as the source states them, for the method shown. In cells and extracts the contact can be indirect. These calls come from enrichment with a bait or labelling near it, and not all partners need be listed. Sequences can lack the tags named with a protein.

First the molecules themselves.
T1: Cik1–FLAG (native motor, affinity purification from yeast) (S. cerevisiae (S288C background)) (UniProt Q01649)
T1 sequence: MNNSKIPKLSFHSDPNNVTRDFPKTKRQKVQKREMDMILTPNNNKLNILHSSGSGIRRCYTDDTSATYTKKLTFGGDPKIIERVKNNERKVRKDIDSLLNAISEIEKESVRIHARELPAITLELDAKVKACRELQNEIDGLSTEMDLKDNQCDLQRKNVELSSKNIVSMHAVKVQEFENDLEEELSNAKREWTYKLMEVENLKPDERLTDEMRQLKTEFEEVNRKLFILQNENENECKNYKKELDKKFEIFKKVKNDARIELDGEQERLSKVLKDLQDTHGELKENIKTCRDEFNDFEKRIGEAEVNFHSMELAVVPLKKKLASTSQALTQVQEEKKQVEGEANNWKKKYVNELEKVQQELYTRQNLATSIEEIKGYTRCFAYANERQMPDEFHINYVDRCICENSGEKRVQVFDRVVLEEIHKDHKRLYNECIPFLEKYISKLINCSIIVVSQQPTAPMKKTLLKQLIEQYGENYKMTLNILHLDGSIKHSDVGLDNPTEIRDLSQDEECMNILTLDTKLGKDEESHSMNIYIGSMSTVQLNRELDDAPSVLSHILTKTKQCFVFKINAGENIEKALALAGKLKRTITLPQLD

B1: Bim1 (endogenous, co-purified with Cik1–FLAG) (protein, UniProt P40013 1-344)
chain: MSAGIGESRTELLTWLNGLLNLNYKKIEECGTGAAYCQIMDSIYGDLPMNRVKFNATAEYEFQTNYKILQSCFSRHGIEKTVYVDKLIRCKFQDNLEFLQWLKKHWIRHKDESVYDPDARRKYRPIITNNSATKPRTVSNPTTAKRSSSTGTGSAMSGGLATRHSSLGINGSRKTSVTQGQLVAIQAELTKSQETIGSLNEEIEQYKGTVSTLEIEREFYFNKLRDIEILVHTTQDLINEGVYKFNDETITGHGNGNGGALLRFVKKVESILYATAEGFEMNDGEDELNDKNLGEHGTVPNQGGYANSNGEVNGNEGSNHDVIMQNDEGEVGVSNNLIIDEETF
B2: Kar3 (endogenous, co-purified with Cik1–FLAG) (protein, UniProt P17119 1-729)
chain: MESLPRTPTKGRSTQHLSTPSPKNDILAMNGHKRRNTTTPPPKHTLLKPQRTDIHRHSLASQSRISMSPNRELLKNYKGTANLIYGNQKSNSGVTSFYKENVNELNRTQAILFEKKATLDLLKDELTETKEKINAVNLKFETLREEKIKIEQQLNLKNNELISIKEEFLSKKQFMNEGHEIHLKQLAASNKKELKQMENEYKTKIEKLKFMKIKQFENERASLLDKIEEVRNKITMNPSTLQEMLNDVEQKHMLEKEEWLTEYQSQWKKDIELNNKHMQEIESIKKEIENTLKPELAEKKKLLTEKRNAYEAIKVKVKEKEEETTRLRDEVALKQKTNLETLEKIKELEEYIKDTELGMKELNEILIKEETVRRTLHNELQELRGNIRVYCRIRPALKNLENSDTSLINVNEFDDNSGVQSMEVTKIQNTAQVHEFKFDKIFDQQDTNVDVFKEVGQLVQSSLDGYNVCIFAYGQTGSGKTFTMLNPGDGIIPSTISHIFNWINKLKTKGWDYKVNCEFIEIYNENIVDLLRSDNNNKEDTSIGLKHEIRHDQETKTTTITNVTSCKLESEEMVEIILKKANKLRSTASTASNEHSSRSHSIFIIHLSGSNAKTGAHSYGTLNLVDLAGSERINVSQVVGDRLRETQNINKSLSCLGDVIHALGQPDSTKRHIPFRNSKLTYLLQYSLTGDSKTLMFVNISPSSSHINETLNSLRFASKVNSTRLVSRK
B3: Bik1 (endogenous, co-purified with Cik1–FLAG) (protein, UniProt P11709 1-440)
chain: MDRYQRKIGCFIQIPNLGRGQLKYVGPVDTKAGMFAGVDLLANIGKNDGSFMGKKYFQTEYPQSGLFIQLQKVASLIEKASISQTSRRTTMEPLSIPKNRSIVRLTNQFSPMDDPKSPTPMRSFRITSRHSGNQQSMDQEASDHHQQQEFGYDNREDRMEVDSILSSDRKANHNTTSDWKPDNGHMNDLNSSEVTIELREAQLTIEKLQRKQLHYKRLLDDQRMVLEEVQPTFDRYEATIQEREKEIDHLKQQLELERRQQAKQKQFFDAENEQLLAVVSQLHEEIKENEERNLSHNQPTGANEDVELLKKQLEQLRNIEDQFELHKTKWAKEREQLKMHNDSLSKEYQNLSKELFLTKPQDSSSEEVASLTKKLEEANEKIKQLEQAQAQTAVESLPIFDPPAPVDTTAGRQQWCEHCDTMGHNTAECPHHNPDNQQFF

This assay addresses T1, Cik1–FLAG (native motor, affinity purification from yeast) (S. cerevisiae (S288C background)). Kind of assay: affinity purification with mass spectrometry; Cik1–FLAG from yeast at different cell cycle stages; anti-FLAG M2 antibody on Dynabeads, buffer A with 150 mM KCl, 0.1% NP-40; on-bead LysC digest; three independent preparations.
As for B1, the binding result is “binds”. For the molecule B2, the binding entry was “binds”.

For the molecule B3, the binding entry is recorded as “binds”.

The values are drawn from publication PMC4338441, “Non-catalytic motor domains enable processive movement and functional diversification of the kinesin-14 Kar3” (eLife, 2015).
